These are yes or no findings as the source states them, for the method shown. For some of these results: In cells and extracts the contact can be indirect. Some entries that bind do so weakly or less than the wild type.
Columns and labels:
GST-SRPK1 = GST-SRPK1 (UniProt Q96SB4); assay: pull-down; GST-SRPK1 (2–3 μg) immobilized on glutathione-Sepharose beads, His-TAF15 (2 μg) in solution; 20 mM Hepes pH 7.5, 50 mM NaCl (also 150 and 300 mM NaCl), 1% Triton X-100, 0.5 mL, 60 min, room temperature; bound His-TAF15 detected by Coomassie Blue staining; both purified
GST-TAF15 (human) = GST-TAF15 (human) (UniProt Q92804); assay: pull-down; GST fusions of TAF15 (2–3 μg each) immobilized on glutathione-Sepharose beads, incubated with HeLa cell extracts (∼200 μg of total protein); 50 mM Tris-HCl pH 7.5, 150 mM NaCl, 1% Triton X-100, 0.5 mM PMSF, 0.5 mL, 60 min, room temperature; bound SRPK1 detected by Western blotting; only the target purified
GST-TAF15(1–320) (human) = GST-TAF15(1–320) (human) (UniProt Q92804); assay: as above
GST-TAF15-RGG (human) = GST-TAF15-RGG (human) (UniProt Q92804); assay: as above

By UniProt entry, the sequences of proteins in these tests, tags left out. Where a name states a change or a piece, a line headed by the entry shows the natural chain unless it says otherwise. Chains listed by the source or under a name are the forms on record and can include a tag or linker. Residues count along the entry.
UniProt Q96SB4: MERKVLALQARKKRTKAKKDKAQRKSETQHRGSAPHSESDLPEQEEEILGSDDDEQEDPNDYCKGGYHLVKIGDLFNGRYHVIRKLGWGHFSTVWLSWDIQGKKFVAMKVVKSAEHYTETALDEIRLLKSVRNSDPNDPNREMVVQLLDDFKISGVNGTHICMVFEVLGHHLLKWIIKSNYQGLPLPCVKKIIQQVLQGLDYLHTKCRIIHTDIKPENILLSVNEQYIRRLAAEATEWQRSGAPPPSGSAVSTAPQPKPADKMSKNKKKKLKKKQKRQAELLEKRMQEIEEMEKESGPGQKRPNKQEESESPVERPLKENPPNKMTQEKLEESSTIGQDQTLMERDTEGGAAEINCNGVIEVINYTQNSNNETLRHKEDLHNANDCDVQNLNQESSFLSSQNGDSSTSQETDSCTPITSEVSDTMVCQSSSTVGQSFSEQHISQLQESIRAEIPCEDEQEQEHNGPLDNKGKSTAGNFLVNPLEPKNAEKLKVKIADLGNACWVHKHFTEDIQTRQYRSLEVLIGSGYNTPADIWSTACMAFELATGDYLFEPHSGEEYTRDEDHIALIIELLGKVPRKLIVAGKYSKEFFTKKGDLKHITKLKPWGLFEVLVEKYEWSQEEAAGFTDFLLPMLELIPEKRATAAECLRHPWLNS
GST-TAF15-RGG (Q92804, residues 322-592): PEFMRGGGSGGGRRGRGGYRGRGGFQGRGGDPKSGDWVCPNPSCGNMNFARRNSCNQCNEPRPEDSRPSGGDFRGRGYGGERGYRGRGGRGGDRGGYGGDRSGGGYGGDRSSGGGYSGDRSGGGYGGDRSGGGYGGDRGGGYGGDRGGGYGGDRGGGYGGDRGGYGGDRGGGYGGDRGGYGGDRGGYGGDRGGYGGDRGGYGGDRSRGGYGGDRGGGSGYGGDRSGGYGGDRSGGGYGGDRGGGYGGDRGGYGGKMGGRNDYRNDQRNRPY
GST-TAF15 (Q92804-2, form named): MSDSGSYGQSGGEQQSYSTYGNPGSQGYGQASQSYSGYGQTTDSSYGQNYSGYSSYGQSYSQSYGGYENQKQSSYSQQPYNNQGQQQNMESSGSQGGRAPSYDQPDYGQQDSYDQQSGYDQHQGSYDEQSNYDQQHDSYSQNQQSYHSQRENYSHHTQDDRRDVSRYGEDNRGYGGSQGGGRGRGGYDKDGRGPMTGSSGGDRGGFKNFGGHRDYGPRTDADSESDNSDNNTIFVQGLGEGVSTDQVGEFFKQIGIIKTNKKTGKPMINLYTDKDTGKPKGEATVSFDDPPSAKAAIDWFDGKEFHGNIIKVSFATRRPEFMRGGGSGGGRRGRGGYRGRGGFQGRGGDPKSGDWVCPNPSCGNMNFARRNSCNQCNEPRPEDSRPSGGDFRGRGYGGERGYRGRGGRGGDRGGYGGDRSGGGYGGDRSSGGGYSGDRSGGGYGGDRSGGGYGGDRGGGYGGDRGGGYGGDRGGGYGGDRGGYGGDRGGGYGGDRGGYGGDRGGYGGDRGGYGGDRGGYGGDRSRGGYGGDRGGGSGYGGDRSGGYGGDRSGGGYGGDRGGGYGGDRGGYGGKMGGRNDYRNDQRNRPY
GST-TAF15(1–320) (Q92804-2, form named): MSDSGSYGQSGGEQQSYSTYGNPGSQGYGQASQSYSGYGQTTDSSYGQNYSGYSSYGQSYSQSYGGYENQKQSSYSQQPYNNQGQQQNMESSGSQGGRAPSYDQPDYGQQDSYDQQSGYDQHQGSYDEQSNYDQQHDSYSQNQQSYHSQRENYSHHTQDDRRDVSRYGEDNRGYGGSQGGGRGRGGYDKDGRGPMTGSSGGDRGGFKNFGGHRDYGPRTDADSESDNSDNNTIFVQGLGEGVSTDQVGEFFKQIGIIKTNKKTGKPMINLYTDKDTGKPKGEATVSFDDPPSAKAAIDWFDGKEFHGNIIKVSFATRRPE

binding (GST-SRPK1)	binding (GST-TAF15 (human))	binding (GST-TAF15(1–320) (human))	binding (GST-TAF15-RGG (human))	Substance
binds	–	–	–	His-TAF15 (from UniProt Q92804-2 1-589)
–	binds	no binding	binds	SRPK1 (endogenous, HeLa cell extracts) (from UniProt Q96SB4 1-655) (enzyme)
